Data as given in PMC9380258, “Primary and secondary functions of HLA-E are determined by stability and conformation of the peptide-bound complexes” (Cell Reports, 2022).
Like-named read-outs stand apart in the source and are kept apart here.

System: HLA-E
Experiment: Blue native gel (BNG) analysis of HLA-E after peptide exchange
Parameters: species or system human

Sequence | blue native gel band form (HLA-E pre-refolded with UV-sensitive VL9 variant, 3 h on ice with 12 M excess test peptide, 4-16% Native-PAGE) | blue native gel band form
VMAPRTVLL [VL9, reference compound] | single compact gel band | –
SQAPLPCVL [BZLF1] | – | Two band forms
